These are yes or no findings as the source states them, for the method shown. In cells and extracts the contact can be indirect. Some entries that bind do so weakly or less than the wild type. Values belong to the substance of their own block, whether it stands above or below them.
How the values were obtained:
[1] = biological target: CMIP expressed in podocytes of transgenic mice (human) (UniProt Q8IY22); test: co-IP; glomerular extracts of wild-type and Tg(+) mice; Cmip immunoprecipitated, eluates blotted with anti-WT1 and anti-CMIP
[2] = biological target: endogenous mouse Wt1 (mouse (endogenous in M15 cells, mouse podocyte cell line, mouse glomeruli)) (UniProt P22561); test: cross-linking + co-IP; M15 cells transfected with mouse Cmip, treated 20 min with 0.5 mM DSP or DMSO; lysis buffer with or without 8 M urea; IP with rabbit anti-WT1 (C-19), washes in RIPA buffer; blot with anti-CMIP and anti-WT1 (F-6)
[3] = biological target: endogenous mouse Wt1 (mouse (endogenous in M15 cells, mouse podocyte cell line, mouse glomeruli)) (UniProt P22561); test: co-IP; M15 cells (endogenous Wt1) transfected with Cmip expression plasmid or empty vector; lysates immunoprecipitated with anti-WT1 (polyclonal C19), eluates probed with anti-Cmip or anti-WT1 (Mab F6)
[4] = biological target: endogenous mouse Wt1 (mouse (endogenous in M15 cells, mouse podocyte cell line, mouse glomeruli)) (UniProt P22561); test: co-IP; podocyte cell line transfected with V5-tagged Cmip; WT1 immunoprecipitated from extracts, eluates blotted with anti-WT1 or anti-V5

Protein sequences, listed by entry. Tags and fused reporters are not part of them.
UniProt Q8IY22: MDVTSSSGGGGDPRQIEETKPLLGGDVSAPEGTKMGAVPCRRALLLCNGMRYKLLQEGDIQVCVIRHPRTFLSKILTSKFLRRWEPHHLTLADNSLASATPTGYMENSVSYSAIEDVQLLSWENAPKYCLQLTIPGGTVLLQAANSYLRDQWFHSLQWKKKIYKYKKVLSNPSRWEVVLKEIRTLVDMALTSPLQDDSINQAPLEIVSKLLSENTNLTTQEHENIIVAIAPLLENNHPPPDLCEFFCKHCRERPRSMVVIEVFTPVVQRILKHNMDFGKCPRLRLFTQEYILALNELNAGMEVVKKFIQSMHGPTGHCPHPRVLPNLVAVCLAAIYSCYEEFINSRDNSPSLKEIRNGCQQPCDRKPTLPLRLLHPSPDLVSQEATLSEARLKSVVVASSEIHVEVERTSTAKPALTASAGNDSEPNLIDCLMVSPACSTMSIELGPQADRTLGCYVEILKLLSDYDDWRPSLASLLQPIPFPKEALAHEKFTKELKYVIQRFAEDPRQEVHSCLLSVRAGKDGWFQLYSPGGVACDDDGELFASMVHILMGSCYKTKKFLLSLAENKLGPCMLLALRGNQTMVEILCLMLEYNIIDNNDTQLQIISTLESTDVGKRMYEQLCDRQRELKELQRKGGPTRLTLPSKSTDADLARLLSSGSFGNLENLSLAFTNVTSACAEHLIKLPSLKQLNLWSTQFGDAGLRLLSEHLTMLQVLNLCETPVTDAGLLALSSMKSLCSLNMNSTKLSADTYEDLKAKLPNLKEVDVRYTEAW
UniProt P22561: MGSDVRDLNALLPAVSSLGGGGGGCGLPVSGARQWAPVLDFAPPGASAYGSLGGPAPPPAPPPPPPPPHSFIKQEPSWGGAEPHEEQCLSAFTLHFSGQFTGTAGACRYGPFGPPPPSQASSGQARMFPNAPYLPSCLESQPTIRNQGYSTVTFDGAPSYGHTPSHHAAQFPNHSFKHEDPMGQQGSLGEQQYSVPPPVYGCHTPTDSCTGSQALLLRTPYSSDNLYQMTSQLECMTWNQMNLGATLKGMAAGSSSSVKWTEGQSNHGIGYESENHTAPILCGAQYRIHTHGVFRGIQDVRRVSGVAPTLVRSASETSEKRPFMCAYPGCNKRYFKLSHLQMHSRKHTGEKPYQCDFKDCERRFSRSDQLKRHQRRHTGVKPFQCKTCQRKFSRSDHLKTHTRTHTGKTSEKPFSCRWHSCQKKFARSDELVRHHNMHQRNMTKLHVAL
UniProt Q9D486: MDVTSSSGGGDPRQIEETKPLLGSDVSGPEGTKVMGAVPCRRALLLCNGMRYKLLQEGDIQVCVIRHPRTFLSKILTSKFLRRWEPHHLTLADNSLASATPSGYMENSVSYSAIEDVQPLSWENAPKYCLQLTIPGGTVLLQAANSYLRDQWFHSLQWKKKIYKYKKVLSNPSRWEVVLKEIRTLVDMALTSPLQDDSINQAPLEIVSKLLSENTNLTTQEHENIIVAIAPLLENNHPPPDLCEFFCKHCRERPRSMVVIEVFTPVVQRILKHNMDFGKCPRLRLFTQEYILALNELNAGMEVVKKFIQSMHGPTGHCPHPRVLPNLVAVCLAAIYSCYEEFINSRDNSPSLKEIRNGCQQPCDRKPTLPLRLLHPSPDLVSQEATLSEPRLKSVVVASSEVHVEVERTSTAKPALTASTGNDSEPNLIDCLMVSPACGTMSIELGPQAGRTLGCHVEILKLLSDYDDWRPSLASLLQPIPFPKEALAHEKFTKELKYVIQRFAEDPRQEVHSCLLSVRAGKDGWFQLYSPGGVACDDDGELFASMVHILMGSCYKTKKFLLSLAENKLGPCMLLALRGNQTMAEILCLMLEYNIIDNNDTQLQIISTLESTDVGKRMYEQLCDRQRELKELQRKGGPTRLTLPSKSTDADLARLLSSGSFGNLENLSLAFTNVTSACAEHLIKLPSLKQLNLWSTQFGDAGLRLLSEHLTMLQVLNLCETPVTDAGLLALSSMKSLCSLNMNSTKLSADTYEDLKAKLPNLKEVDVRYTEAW

binding [1]: binds
Substance: endogenous mouse Wt1 (from UniProt P22561 1-449)

binding [2]: binds
binding [3]: binds
Substance: mouse Cmip, expressed in M15 cells (from UniProt Q9D486 1-773)

binding [4]: binds
Substance: V5-tagged Cmip, expressed in a mouse podocyte cell line (from UniProt Q9D486 1-773)
